Results: PMC12431657, “Discovery and mechanistic insights of dibenzoylmethane as a broad spectrum inhibitor of coronavirus” (PLOS Pathogens, 2025)
Like-named read-outs stand apart in the source and are kept apart here. Hit rate of the full screen: of about 3,300 compounds, about 60 (2%) showed an effect of 50% or more. The list shows a part of the results. Numbered stars: 1 amine (or outer) side, 2 acyl side, 3 side chain; on linkers, the order of the positions; unused ones are H or OH. Bridge positions count the residues as written; N and C are the ends. Square brackets hold non-standard residues; d marks the D form. Peptide text beside a SMILES is read from it. * marks the point of attachment. Orn(4R-OH,5R-OH) = O=C([C@H](C[C@@H](O)[C@@H](O)N[*:3])N[*:1])[*:2]; Tetradecanoyl(10R,12S-Me2) = CC[C@H](C)C[C@H](C)CCCCCCCCC(=O)*; hTyr(3S-OH,4S-OH) = N[C@H](C(=O)O)[C@H](O)[C@@H](O)c1ccc(O)cc1; Gln(3R-OH) = NC(=O)C[C@@H](O)[C@H](N)C(=O)O; Pro(3S-OH) = O=C(O)[C@H]1NCC[C@@H]1O; Hyp = O=C(O)[C@@H]1C[C@@H](O)CN1

System: HCoV-OC43
Set-up: species or system RD; HTS, protection from HCoV-OC43 induced cell death, luminescent cell viability (CellCounting-Lite 2.0), inhibition rate
Conditions: 24 h post infection, 1 h compound pre-incubation, 10 µM, inhibitor

| Compound | OC43 Inhibition rate | OC43 Inhibition rate (OC43 Inhibition rate, 24 h) |
| --- | --- | --- |
| O=Cc1ccoc1 [3-Furaldehyde] | -1.5% |  |
| CC1(C)O[C@H]1COc1c2ccoc2cc2oc(=O)ccc12 [Oxypeucedanin] | 0.5% |  |
| O=C1c2cccc(O)c2C(=O)c2c(O)cc(CO)cc21 [Aloe emodin] | -1.1% |  |
| O=C(O)[C@H](O)[C@@H](O)C(=O)O [L-Tartaric acid] |  | 0% |
| CC[C@H](C)C[C@H](C)CCCCCCCCC(=O)N[C@H]1C[C@@H](O)[C@@H](O)NC(=O)[C@@H]2[C@@H](O)CCN2C(=O)[C@H]([C@H](O)CC(N)=O)NC(=O)[C@H]([C@H](O)[C@@H](O)c2ccc(O)cc2)NC(=O)[C@@H]2C[C@@H](O)CN2C(=O)[C@H]([C@@H](C)O)NC1=O [Pneumocandin B0] ({Tetradecanoyl(10R,12S-Me2)}-[Orn(4R-OH,5R-OH)]T[Hyp][hTyr(3S-OH,4S-OH)][Gln(3R-OH)][Pro(3S-OH)]; lactam 1-C) | 1.9% |  |
| O=C(O)CNC(=O)c1ccccc1 [Hippuric acid] | -1.7% |  |
| O=C(O)[C@@H]1Cc2nc[nH]c2CN1 [Spinacine] | 1.1% |  |
| COc1cc2c(CCNC(C)=O)c[nH]c2cc1O [6-Hydroxymelatonin] | -0.8% |  |
| O=C(O)[C@@H](O)[C@@H](O)[C@H](O)[C@@H](O)C(=O)O [D-Glucaric acid (potassium)] | -8% |  |
| O=c1c(O)c(-c2ccccc2)oc2ccccc12 [Flavonol] | 0% |  |
| Oc1cc(O)cc(/C=C/c2ccccc2)c1 [Pinosylvin] | 0.4% |  |
| C[C@@H]1CC[C@@]2(OC1)O[C@H]1C[C@H]3[C@@H]4CC[C@H]5C[C@@H](O)CC[C@]5(C)[C@H]4CC[C@]3(C)[C@H]1[C@@H]2C [Tigogenin] | 0.6% |  |
| CCOC(=O)CCC(=O)OCC [Diethyl succinate] | -2.1% |  |
| CC(C)(O)CC[C@@H](O)[C@](C)(O)[C@H]1CC[C@@]2(O)C3=CC(=O)[C@@H]4C[C@@H](O)[C@@H](O)C[C@]4(C)[C@H]3[C@H](O)C[C@]12C [Turkesterone] | -2% |  |
| COc1cc(/C=C/C(=O)OCC[N+](C)(C)C)cc(OC)c1O [Sinapine] | -1.2% |  |
| CC[C@]12C=CCN3CC[C@]4(C(=C(C(=O)OC)C1)Nc1ccccc14)[C@@H]32 [Tabersonine] | 0% |  |
| COc1c(CC=C(C)C)c(O)cc2oc(=O)c(-c3ccc(O)cc3O)cc12 [Glycycoumarin] | 0.9% |  |
| O=C(N[C@@H](c1ccccc1)[C@@H](O)C(=O)O)c1ccccc1 [N-Benzoyl-(2R,3S)-3-phenylisoserine] | 0.3% |  |

Random excerpt: two compounds from above, in no set order.

| Compound | OC43 Inhibition rate | OC43 Inhibition rate (OC43 Inhibition rate, 24 h) |
| --- | --- | --- |
| COc1cc(/C=C/C(=O)OCC[N+](C)(C)C)cc(OC)c1O [Sinapine] | -1.2% |  |
| CC[C@]12C=CCN3CC[C@]4(C(=C(C(=O)OC)C1)Nc1ccccc14)[C@@H]32 [Tabersonine] | 0% |  |
